Earlier results, collected in patent US20070264667A1, “Method and system for assaying transferase activity” (priority 2003, published 2007).

System: cyclin-dependent protein kinase (CDPK)
Settings: ref (21)

CC[C@H](CO)Nc1nc(NCc2ccccc2)c2ncn(C(C)C)c2n1 [Roscovitine]
selectivity towards CDPK than any other kinase: 100 fold
